Data reported in publication doi:10.1101/2023.05.09.539743 (bioRxiv, 2023).

Target: T1, MYC-tagged ZFC3H1 N-terminal variant Z1^1-209(WT) (human) (UniProt O60293)
T1 sequence: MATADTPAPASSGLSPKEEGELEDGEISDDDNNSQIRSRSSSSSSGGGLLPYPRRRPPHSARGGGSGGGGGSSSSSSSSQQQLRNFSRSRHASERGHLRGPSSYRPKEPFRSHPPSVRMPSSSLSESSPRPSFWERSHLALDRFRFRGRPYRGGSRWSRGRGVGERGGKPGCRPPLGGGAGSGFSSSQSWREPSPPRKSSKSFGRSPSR
Assay: affinity purification with mass spectrometry

binding: binds
B1: ARS2 (endogenous) (protein, UniProt Q9BXP5 1-876)
chain: MGDSDDEYDRRRRDKFRRERSDYDRSRERDERRRGDDWNDREWDRGRERRSRGEYRDYDRNRRERFSPPRHELSPPQKRMRRDWDEHSSDPYHSGYEMPYAGGGGGPTYGPPQPWGHPDVHIMQHHVLPIQARLGSIAEIDLGVPPPVMKTFKEFLLSLDDSVDETEAVKRYNDYKLDFRRQQMQDFFLAHKDEEWFRSKYHPDEVGKRRQEARGALQNRLRVFLSLMETGWFDNLLLDIDKADAIVKMLDAAVIKMEGGTENDLRILEQEEEEEQAGKPGEPSKKEEGRAGAGLGDGERKTNDKDEKKEDGKQAENDSSNDDKTKKSEGDGDKEEKKEDSEKEAKKSSKKRNRKHSGDDSFDEGSVSESESESESGQAEEEKEEAEEALKEKEKPKEEEWEKPKDAAGLECKPRPLHKTCSLFMRNIAPNISRAEIISLCKRYPGFMRVALSEPQPERRFFRRGWVTFDRSVNIKEICWNLQNIRLRECELSPGVNRDLTRRVRNINGITQHKQIVRNDIKLAAKLIHTLDDRTQLWASEPGTPPLPTSLPSQNPILKNITDYLIEEVSAEEEELLGSSGGAPPEEPPKEGNPAEINVERDEKLIKVLDKLLLYLRIVHSLDYYNTCEYPNEDEMPNRCGIIHVRGPMPPNRISHGEVLEWQKTFEEKLTPLLSVRESLSEEEAQKMGRKDPEQEVEKFVTSNTQELGKDKWLCPLSGKKFKGPEFVRKHIFNKHAEKIEEVKKEVAFFNNFLTDAKRPALPEIKPAQPPGPAQILPPGLTPGLPYPHQTPQGLMPYGQPRPPILGYGAGAVRPAVPTGGPPYPHAPYGAGRGNYDAFRGQGGYPGKPRNRMVRGDPRAIVEYRDLDAPDDVDFF

Results are given in words; binding and its absence hold for the method and conditions named. In cells and extracts the contact can be indirect. These calls come from enrichment with a bait or labelling near it, and not all partners need be listed. Where a sequence is shown, tags or fusion partners need not be part of it.
